Read-outs that look alike come from different tables or passages of the source. Results are given in words; binding and its absence hold for the method and conditions named. Binding seen in cells or lysates may run through a third protein. These calls come from enrichment with a bait or labelling near it, and not all partners need be listed. Values belong to the molecule of their own block, whether it stands above or below them.
Experiments:
Experiment in all cases: affinity purification with mass spectrometry; tandem affinity purification (streptavidin Sepharose, biotin elution, S-protein agarose) from lysates (NETN buffer) of HEK293T cells expressing the SFB-tagged bait; LC-MS/MS; duplicates
[1] = molecular target: SFB-B56δ full length (FL) (human) (UniProt Q14738)
[2] = molecular target: T1, SFB-PPM1G full length (FL) (human) (UniProt O15355)
T1 sequence: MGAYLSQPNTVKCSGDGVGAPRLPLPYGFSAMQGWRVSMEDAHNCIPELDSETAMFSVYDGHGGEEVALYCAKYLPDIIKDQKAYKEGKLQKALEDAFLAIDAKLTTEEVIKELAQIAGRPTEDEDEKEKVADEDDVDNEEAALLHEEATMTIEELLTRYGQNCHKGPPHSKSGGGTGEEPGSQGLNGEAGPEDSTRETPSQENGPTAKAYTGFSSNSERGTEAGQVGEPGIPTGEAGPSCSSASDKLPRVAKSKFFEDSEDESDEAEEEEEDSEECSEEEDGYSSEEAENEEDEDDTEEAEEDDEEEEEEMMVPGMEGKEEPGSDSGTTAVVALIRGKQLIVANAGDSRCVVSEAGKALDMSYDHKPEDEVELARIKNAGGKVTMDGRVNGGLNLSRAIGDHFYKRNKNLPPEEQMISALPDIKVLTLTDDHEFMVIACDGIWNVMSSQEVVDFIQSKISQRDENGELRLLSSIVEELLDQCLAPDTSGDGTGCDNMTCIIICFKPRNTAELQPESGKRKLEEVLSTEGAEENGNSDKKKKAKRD

Chains of the proteins cited; added tags and fusions are not shown. Lines headed by an entry give the natural chain unless they say otherwise; changes in a name come on top.
UniProt Q14738: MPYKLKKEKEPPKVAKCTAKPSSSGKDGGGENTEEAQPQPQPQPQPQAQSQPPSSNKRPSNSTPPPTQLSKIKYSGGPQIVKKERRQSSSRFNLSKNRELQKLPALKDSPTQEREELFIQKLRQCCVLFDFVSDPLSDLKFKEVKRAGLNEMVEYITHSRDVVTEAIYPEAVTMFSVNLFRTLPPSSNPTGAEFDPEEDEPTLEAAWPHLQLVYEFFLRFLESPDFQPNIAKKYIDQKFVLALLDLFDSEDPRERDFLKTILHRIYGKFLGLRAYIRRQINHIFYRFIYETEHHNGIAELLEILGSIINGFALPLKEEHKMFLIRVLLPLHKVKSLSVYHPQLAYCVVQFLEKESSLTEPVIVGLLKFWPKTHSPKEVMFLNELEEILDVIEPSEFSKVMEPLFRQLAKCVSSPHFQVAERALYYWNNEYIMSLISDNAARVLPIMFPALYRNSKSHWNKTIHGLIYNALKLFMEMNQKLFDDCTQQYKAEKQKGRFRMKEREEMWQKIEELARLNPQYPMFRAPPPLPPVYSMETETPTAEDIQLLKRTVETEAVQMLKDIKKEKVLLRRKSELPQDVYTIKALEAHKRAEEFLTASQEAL
UniProt Q15173: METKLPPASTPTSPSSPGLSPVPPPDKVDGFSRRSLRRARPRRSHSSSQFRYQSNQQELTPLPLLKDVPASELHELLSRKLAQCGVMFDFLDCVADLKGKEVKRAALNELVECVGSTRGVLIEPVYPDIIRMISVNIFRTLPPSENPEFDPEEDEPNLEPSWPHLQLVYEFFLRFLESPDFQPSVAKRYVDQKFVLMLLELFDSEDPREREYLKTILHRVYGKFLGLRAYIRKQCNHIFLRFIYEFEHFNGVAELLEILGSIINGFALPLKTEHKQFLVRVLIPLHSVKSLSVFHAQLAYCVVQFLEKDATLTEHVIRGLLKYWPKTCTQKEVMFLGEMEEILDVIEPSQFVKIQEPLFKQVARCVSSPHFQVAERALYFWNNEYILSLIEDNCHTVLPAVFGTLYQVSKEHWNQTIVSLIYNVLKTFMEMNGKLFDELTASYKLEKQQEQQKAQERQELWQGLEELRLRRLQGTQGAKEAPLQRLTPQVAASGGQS
UniProt P35221: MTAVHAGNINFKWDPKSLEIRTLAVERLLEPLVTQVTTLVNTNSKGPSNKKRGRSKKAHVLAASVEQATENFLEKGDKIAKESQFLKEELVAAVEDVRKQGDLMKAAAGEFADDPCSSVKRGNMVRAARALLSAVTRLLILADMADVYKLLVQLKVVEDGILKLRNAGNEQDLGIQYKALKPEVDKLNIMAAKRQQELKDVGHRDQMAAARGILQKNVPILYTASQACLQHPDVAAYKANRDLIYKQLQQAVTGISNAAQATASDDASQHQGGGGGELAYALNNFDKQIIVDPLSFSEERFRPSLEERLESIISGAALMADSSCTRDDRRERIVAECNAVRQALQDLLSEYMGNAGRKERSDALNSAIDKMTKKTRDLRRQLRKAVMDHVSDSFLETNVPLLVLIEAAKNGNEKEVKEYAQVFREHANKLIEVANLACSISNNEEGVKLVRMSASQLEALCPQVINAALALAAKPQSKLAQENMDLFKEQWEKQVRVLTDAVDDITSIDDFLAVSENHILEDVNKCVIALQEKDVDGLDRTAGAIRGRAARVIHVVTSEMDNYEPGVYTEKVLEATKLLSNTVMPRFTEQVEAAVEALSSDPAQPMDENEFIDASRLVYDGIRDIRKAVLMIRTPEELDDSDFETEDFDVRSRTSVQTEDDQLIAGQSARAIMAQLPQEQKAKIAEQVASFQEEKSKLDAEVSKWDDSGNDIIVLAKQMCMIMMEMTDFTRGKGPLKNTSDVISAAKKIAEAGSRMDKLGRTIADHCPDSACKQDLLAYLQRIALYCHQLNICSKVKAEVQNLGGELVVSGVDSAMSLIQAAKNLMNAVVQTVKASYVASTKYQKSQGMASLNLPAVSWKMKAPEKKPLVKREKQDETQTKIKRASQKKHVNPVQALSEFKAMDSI

[3] = molecular target: SFB-B56δ full length (FL) (human) (UniProt Q14738); remark: listed apart in the source

- binding [1]: binds
Molecule: B56β found in the B56δ purification (from UniProt Q15173 1-497)

- binding [2]: binds
Molecule: endogenous α-catenin (from UniProt P35221 1-906)

- binding [3]: binds
B1: 6xHis-tagged PPM1G (enzyme, human, UniProt O15355 1-546, looked up)
chain: MGAYLSQPNTVKCSGDGVGAPRLPLPYGFSAMQGWRVSMEDAHNCIPELDSETAMFSVYDGHGGEEVALYCAKYLPDIIKDQKAYKEGKLQKALEDAFLAIDAKLTTEEVIKELAQIAGRPTEDEDEKEKVADEDDVDNEEAALLHEEATMTIEELLTRYGQNCHKGPPHSKSGGGTGEEPGSQGLNGEAGPEDSTRETPSQENGPTAKAYTGFSSNSERGTEAGQVGEPGIPTGEAGPSCSSASDKLPRVAKSKFFEDSEDESDEAEEEEEDSEECSEEEDGYSSEEAENEEDEDDTEEAEEDDEEEEEEMMVPGMEGKEEPGSDSGTTAVVALIRGKQLIVANAGDSRCVVSEAGKALDMSYDHKPEDEVELARIKNAGGKVTMDGRVNGGLNLSRAIGDHFYKRNKNLPPEEQMISALPDIKVLTLTDDHEFMVIACDGIWNVMSSQEVVDFIQSKISQRDENGELRLLSSIVEELLDQCLAPDTSGDGTGCDNMTCIIICFKPRNTAELQPESGKRKLEEVLSTEGAEENGNSDKKKKAKRD
notes: PPM1G (PP2Cγ); The cloning into a His-tag vector is not described in the methods; also called His-PPM1G; recombinant PPM1G; source: recombinant
